Patent US6682545B1, “System and device for preventing restenosis in body vessels” (The Penn State Research Foundation, priority 1999, dated 2004)

System: neointimal hyperplasia in rabbit carotid arteries
Assay: Restenosis after balloon angioplasty with ceramide-coated embolectomy catheter balloon
Format: in vivo, New Zealand white rabbits
Settings: rabbit carotid artery

Compound: CCCCCCCCCCCCC/C=C/[C@@H](O)[C@H](CO)NC(=O)CCCCC [C6-ceramide]
- cellular protein content vs sham control and vehicle control arteries: no significant differences
